Experimental data taken from doi:10.1101/2025.01.07.631699.

The chains behind the UniProt entries cited, without tags or fusion partners.
UniProt P48727: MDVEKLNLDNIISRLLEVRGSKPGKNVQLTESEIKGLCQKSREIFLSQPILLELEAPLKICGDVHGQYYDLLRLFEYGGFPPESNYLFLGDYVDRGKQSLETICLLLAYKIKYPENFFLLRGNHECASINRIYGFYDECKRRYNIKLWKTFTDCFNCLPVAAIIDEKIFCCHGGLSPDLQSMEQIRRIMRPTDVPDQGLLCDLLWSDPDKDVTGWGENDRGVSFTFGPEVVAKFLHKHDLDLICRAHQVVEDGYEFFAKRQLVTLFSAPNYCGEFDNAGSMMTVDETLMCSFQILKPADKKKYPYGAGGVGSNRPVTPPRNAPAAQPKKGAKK

Molecular target: mNeonGreen tagged GSP-2 (C. elegans) (UniProt P48727)
Experiment: affinity purification with mass spectrometry; mNeonGreen-Trap agarose beads with about 3 mg embryonic extract of the mNG::gsp-2 strain, 4°C for 1.5 h; IP buffer 100 mM KCl, 50 mM Tris pH 7.5, 1 mM MgCl2, 1 mM DTT, 5% glycerol, 0.2% NP-40, 1 mM EDTA; N2 strain as control; triplicate; DIA mass spectrometry

binding: binds
Substance: SZY-2(I-2) (from UniProt Q9N537)

Results are given in words; binding and its absence hold for the method and conditions named. Binding seen in cells or lysates may run through a third protein. A yes stands for co-enrichment or nearness to the bait. Other partners may have been found.
